Some of the results follow.
B1: il2ra_site1_2b5i_normal_mot_HHH_b2_04910_000000118_0001_1_19_H_._HHH_b1_03479_0001_0000300021_0000001_0_af2pred_0001_af2pred_1 (protein)
chain: SSSSNDLAEKVLRILKEANELAKNGDPEEAEELLRELVEELRELGNKALVKFVEAALKLARSSSS
B2: il2ra_site2_2erj_sap_22_mot_HHH_b1_01799_af2_000000125_0001_1_17_H_._HHH_b2_06422_0001_0000400004_0000001_0_0001 (protein)
chain: SSSSSVQELAEEAKELAEELNNEDAEEMIELLLRRYEEEGDESFRRMLEDLLRMLRRLLDSSSSS
B3: il2ra_site2_2erj_normal_mot_HHH_b1_02757_000000121_0001_41_57_H_._HHH_b1_06793_af2_0001_0000300025_0000001_0_af2pred_0001_1_af2pred_swapped (protein)
chain: SSSSSSSEVEERVRELLEEAKHVSDLRRAMELLEEASRLAAENDDDELFQLVDKVFQELSSSSSS
B4: il2ra_site1_3nfp_sap_14_mot_HHH_b2_00205_af2_000000209_0001_44_57_H_._bb09b1289b3eca34408f33f278303ce4_0001_1_af2_0001_0000200018_0000001_0_0001_af2pred_0001_af … (protein)
chain: SSSDDRERILELLREAYELVKNGNPEEARELLEEALKLAQELNSEATAKFLEAALRILESLSSSS
B5: il2ra_site1_3nfp_normal_mot_HHH_b2_06780_000000262_0001_1_19_H_._6417e6f601d619eabc23df3f3aa4305e_0001_0001_0000300011_0000001_0_af2pred_0001_af2pred_1_swapped (protein)
chain: SEELLEELAEELGDPKVREVVKLLEEARRHGDPEASRRFDRLLRELARRGIIPPEVVLRVLREAA
B6: il2ra_site1_3nfp_sap_13_mot_HHH_b2_04287_000000160_0001_19_35_H_._7abaf38a3307e851c9e6880adce6b300_0001_1_0001_0000100002_0000001_0_0001 (protein)
chain: SDRDLEFHEEVFRILAEAIRRKVNAEELAEEIEELLERAEEIGADHAKRAAERLLETAERFLRSS
B7: il2ra_site2_3nfp_sap_12_mot_HHH_b2_03978_000000149_0001_1_20_H_._HHH_b1_05549_af2_0001_0000300017_0000001_0_0001 (protein)
chain: SSSSSDVEEEVRELLEQAEKTEDPEEVRRLFAKAAHLAFERNDPELFMEVAEVALRLHRSSSSSS
B8: il2ra_site2_2erj_sap_26_mot_3b06bd03f1c6bceadc68eab912867b79_0001_000000296_0001_36_50_H_._HHH_b2_02291_0001_0000500048_0000001_0_0001 (protein)
chain: SSSSSSEYREEIEELIEEARRVSEEEAEKLLSEAFELAFENNDVEIASEVIEEMAKLAHASSSSS
B9: il2ra_site1_1z92_sap_28_mot_HHH_b1_00661_af2_000000033_0001_38_50_H_._HHH_b2_00267_af2_0001_0000300009_0000001_0_0001_af2pred_0001_af2pred_1 (protein)
chain: PEELAEQAEELLKNGNPEEAEKVLRELAKELGNEEVFERDLEHAERNLGNPEQALLSLIKALSFV
B10: il2ra_site2_2erj_normal_mot_b021e2f97af61d757b726e3a8bae34a4_0001_af2_000000105_0001_17_31_H_._HHH_b1_04752_0001_0000500018_0000001_0_af2pred_0001_af2pred (protein)
chain: SSSSSDREELERFVEELVEEFGLDEEDKELLEEAVEDALKEGLDEKFIRIFLRKSAKLLQSSSSS
B11: il2ra_site2_2erj_sap_29_mot_ems_p1-14H-GABBL-16H-GABBL-15H_0014_0001_0001_0001_000000124_0001_40_55_H_._HHH_b1_00287_af2_0001_0000200003_0000001_0_0001 (protein)
chain: SSSSSDSEEAARAFAQEAFENNDREALEYFLKFVEKSAEMDGDPRLEEVAELIRELLEELSSSSS
B12: il2ra_site2_2erj_sap_27_mot_e63b485c515f68499f2ec453e144b8a1_0001_af2_000000187_0001_54_65_H_._38c1efbf0224450141ac84ec5489883f_0001_af2_0001_0000400018_0000001 … (protein)
chain: SSSSDEEEERIRELAEEAKRIDDLHEVYELLNEMTRIASEANDQELVELVAELFEEIAELFSSSS
B13: il2ra_site2_2erj_sap_20_mot_HHH_b1_07204_000000037_0001_41_57_H_._41b5e8afe8ae26091a972e0beeba0202_0001_0001_0002000102_0000001_0_0001_af2pred_0001_1_af2pred_sw … (protein)
chain: SDEENLAAFVRLLAEHLGVPSVEVEVENNRLHVEVNGDDEAAKLVILAAKSAAEAHGVEFTFETE
B14: il2ra_site1_3nfp_sap_18_mot_HHH_b1_01736_000000293_0001_24_39_H_._HHH_b2_01871_0001_0000300019_0000001_0_0001 (protein)
chain: QDKALEWFVEDAVKQNSPRALKKFLEDLERMFGDPEEAERFLEELLEAVLGDPEEVERLLKLAKE
B15: il2ra_site2_3nfp_normal_mot_HHH_b1_02297_000000279_0001_41_58_H_._HHH_b2_04619_af2_0001_0000200005_0000001_0_af2pred_0001_af2pred_1_swapped (protein)
chain: SSSSSEDEERVRELLEEAEKIEDEHEVFAILSEALEIAFKSKNEELLREIREVALELRRRSSSSS
B16: il2ra_site1_3nfp_normal_mot_HHH_b1_01335_af2_000000105_0001_39_53_H_._HHH_b2_08384_0001_0000100004_0000001_0_af2pred_0001_af2pred_swapped (protein)
chain: SSSSDEEIREEVEELLERAKHISDAKEVQELLREALRLAKELRDPELRRLIQEVMRELAKSSSSS
B17: il2ra_site1_2b5i_sap_8_mot_HHH_b2_07226_000000072_0001_42_55_H_._HHH_b1_03995_0001_0000400027_0000001_0_0001 (protein)
chain: SSSSDEEDEEVDELFREASELWRNGNPEEARRVLEEAEKLAREINDPKAEEDLRRFLEMLSSSSS
B18: il2ra_site2_3nfp_sap_21_mot_HHH_b1_06586_000000201_0001_1_18_H_._HHH_b2_00107_0001_0000200010_0000001_0_0001_af2pred_0001_1_af2pred_swapped (protein)
chain: SSSSSSDLEEEAHELVEEAKEKADEHQRFALRAAELSAKILGDPKYFEDALHAARLILSSSSSSS
B19: il2ra_site2_2erj_normal_mot_HHH_b2_02500_af2_000000175_0001_19_35_H_._HHH_b2_04507_af2_0001_0000500005_0000001_0 (protein)
chain: SSSSNEELRRLYELANRVLHAEARGDEEELQRLLEEAKELAEKLQSENILELLEQLERLLSSSSS

biological target: il2ra, P01589; experiment: yeast display titration

Apparent Kd, inactive:
B1 no binding seen
B2 no binding seen
B3 no binding seen
B4 no binding seen
B5 no binding seen
B6 no binding seen
B7 no binding seen
B8 no binding seen
B9 no binding seen
B10 no binding seen
B11 no binding seen
B12 no binding seen
B13 no binding seen
B14 no binding seen
B15 no binding seen
B16 no binding seen
B17 no binding seen
B18 no binding seen
B19 no binding seen

Nothing new here: entries from further up.
Apparent Kd, inactive:
B9 no binding seen
B10 no binding seen
